Laboratory results reported in paper PMC7692634, “Structural Basis of Inhibition of the Pioneer Transcription Factor NF-Y by Suramin” (Cells, 2020).
Results are given in words; binding and its absence hold for the method and conditions named. Some binding calls cover weakened binding; strength is not graded here.

By UniProt entry, the sequences of proteins in these tests, tags left out. Residues count along the entry.
NF-YA C-terminal portion (YA3; aa 239-347) (P23511, residues 239-347): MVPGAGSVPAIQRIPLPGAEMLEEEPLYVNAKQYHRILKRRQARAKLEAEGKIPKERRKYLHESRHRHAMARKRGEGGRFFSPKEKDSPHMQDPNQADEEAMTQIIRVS
NF-YA minimal functional domain (aa 262-332) of the NF-Y trimer NF-Yt (P23511, residues 262-332): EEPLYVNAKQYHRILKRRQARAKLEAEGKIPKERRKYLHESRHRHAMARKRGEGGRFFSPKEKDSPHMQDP

T1: NF-Y HFD dimer (NF-YB/NF-YC minimal functional domains) (human) (UniProt P25208+Q13952)
T1 sequence 1: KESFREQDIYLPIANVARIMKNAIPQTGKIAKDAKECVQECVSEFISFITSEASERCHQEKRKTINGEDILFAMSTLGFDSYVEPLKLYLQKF
T1 sequence 2: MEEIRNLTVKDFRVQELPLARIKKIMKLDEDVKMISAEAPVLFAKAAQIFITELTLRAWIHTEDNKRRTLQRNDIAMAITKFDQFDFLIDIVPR

T2: NF-YB minimal functional domain (aa 49-141) (human) (UniProt P25208)
T2 sequence: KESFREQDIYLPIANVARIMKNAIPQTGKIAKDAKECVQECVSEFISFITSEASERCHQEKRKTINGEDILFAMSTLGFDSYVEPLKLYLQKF


How the values were obtained:
[1] = target: T1, NF-Y HFD dimer (NF-YB/NF-YC minimal functional domains) (human); experiment: native gel or EMSA; equimolar purified NF-YA mixed with NF-Yd, 40 nM protein, 20 nM Cy5-labelled 31-bp HSP70 CCAAT probe, 20 mM Tris-Cl pH 7.5, 50 mM NaCl, 5 mM MgCl2, 30 °C for 30 min; 6% non-denaturing gel; the trimer is seen as its complex with DNA; both purified
[2] = target: T2, NF-YB minimal functional domain (aa 49-141) (human); experiment: crystal structure; NF-Yd incubated overnight at 4 °C with a tenfold molar excess of suramin; sitting drop, 20 °C, 200 mM ammonium citrate tribasic, 20% PEG 3350; 2.7 Å, P212121, two NF-Yd and one suramin per asymmetric unit; both purified
[3] = target: NF-YA minimal functional domain (aa 262-332) of the NF-Y trimer NF-Yt (UniProt P23511); experiment: co-purification (nickel affinity by the 6His-tag on NF-YA, then size exclusion); three subunits co-expressed in E. coli; lysate in 10 mM Tris-HCl pH 8, 400 mM NaCl, 2 mM MgCl2, 2 mM imidazole loaded on a His-Select nickel column; Superdex 75 in 10 mM Tris-HCl pH 8, 400 mM NaCl, 2 mM DTT

| binding [1] | binding [2] | binding [3] | Molecule |
| --- | --- | --- | --- |
| binds | – | – | NF-YA C-terminal portion (YA3; aa 239-347) (from UniProt P23511 239-347) (domain or fragment) |
| – | binds | binds | NF-YC minimal functional domain (aa 27-120) (domain or fragment, UniProt Q13952 27-120) MEEIRNLTVKDFRVQELPLARIKKIMKLDEDVKMISAEAPVLFAKAAQIFITELTLRAWIHTEDNKRRTLQRNDIAMAITKFDQFDFLIDIVPR |
